Experimental data: paper PMC8466577
Results are given in words; binding and its absence hold for the method and conditions named. In cells and extracts the contact can be indirect. Some results given as binding are weak or reduced against the parent protein; the word gives no strength.

Sequences of proteins named here, by UniProt entry; tags and fusion partners are left off.
UniProt Q8NI27: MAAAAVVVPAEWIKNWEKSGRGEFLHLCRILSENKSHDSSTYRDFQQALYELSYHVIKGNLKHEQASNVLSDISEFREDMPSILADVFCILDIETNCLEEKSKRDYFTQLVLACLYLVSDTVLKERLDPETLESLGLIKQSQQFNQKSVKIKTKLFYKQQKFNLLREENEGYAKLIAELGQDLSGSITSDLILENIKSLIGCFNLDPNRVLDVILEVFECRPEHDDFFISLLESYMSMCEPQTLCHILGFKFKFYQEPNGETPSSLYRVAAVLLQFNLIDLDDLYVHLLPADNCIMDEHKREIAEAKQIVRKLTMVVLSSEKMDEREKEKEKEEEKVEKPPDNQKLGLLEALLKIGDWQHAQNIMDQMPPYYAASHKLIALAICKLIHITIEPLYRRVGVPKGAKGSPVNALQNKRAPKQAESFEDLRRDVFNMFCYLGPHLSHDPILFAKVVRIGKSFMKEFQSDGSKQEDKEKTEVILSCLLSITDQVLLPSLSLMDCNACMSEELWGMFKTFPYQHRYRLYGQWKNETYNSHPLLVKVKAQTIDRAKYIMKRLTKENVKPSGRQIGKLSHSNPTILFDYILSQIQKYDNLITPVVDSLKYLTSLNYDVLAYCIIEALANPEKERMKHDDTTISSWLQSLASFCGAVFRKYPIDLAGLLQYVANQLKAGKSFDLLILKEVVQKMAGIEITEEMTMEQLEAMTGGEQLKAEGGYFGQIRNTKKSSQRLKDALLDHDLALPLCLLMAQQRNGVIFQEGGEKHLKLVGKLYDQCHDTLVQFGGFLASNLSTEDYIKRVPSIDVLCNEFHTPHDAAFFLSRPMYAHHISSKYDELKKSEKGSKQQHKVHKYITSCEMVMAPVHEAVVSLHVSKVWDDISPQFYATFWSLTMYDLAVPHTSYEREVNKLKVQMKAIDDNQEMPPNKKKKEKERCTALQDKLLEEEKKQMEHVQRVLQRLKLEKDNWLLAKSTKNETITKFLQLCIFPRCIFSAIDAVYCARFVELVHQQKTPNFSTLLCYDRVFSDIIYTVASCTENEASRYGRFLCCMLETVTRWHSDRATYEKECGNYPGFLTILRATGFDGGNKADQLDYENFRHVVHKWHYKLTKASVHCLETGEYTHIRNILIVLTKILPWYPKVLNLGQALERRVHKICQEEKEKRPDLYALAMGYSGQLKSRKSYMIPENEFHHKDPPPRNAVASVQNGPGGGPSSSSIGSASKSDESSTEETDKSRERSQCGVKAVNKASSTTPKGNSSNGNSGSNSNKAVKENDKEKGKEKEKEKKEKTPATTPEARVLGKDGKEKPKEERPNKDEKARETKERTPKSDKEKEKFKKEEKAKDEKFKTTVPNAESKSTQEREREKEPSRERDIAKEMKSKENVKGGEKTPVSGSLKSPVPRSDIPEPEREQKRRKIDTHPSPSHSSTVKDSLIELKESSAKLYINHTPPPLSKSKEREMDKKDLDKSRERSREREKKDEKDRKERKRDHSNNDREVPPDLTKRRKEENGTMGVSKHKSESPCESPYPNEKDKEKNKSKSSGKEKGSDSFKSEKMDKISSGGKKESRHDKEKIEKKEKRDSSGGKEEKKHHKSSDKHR

Molecular target: THOC2 (human (endogenous in SKOV-3 and PC-3)) (UniProt Q8NI27)
Experiment: co-IP; small-scale IPs from PC-3 lysates (1 mg protein) with antibodies to THOC5, THOC2 or RAB11 on Protein G-Dynal beads, normal rabbit IgG as control; Western blot for THOC5, THOC2, SEPT2, SEPT7, RAB11, HMGB1

| Binder | binding |
| --- | --- |
| SEPT2 (protein, UniProt Q15019 1-361) MSKQQPTQFINPETPGYVGFANLPNQVHRKSVKKGFEFTLMVVGESGLGKSTLINSLFLTDLYPERVIPGAAEKIERTVQIEASTVEIEERGVKLRLTVVDTPGYGDAINCRDCFKTIISYIDEQFERYLHDESGLNRRHIIDNRVHCCFYFISPFGHGLKPLDVAFMKAIHNKVNIVPVIAKADTLTLKERERLKKRILDEIEEHNIKIYHLPDAESDEDEDFKEQTRLLKASIPFSVVGSNQLIEAKGKKVRGRLYPWGVVEVENPEHNDFLKLRTMLITHMQDLQEVTQDLHYENFRSERLKRGGRKVENEDMNKDQILLEKEAELRRMQEMIARMQAQMQMQMQGGDGDGGALGHHV | binds |
| SEPT7 (protein, UniProt Q16181 1-437) MSVSARSAAAEERSVNSSTMVAQQKNLEGYVGFANLPNQVYRKSVKRGFEFTLMVVGESGLGKSTLINSLFLTDLYSPEYPGPSHRIKKTVQVEQSKVLIKEGGVQLLLTIVDTPGFGDAVDNSNCWQPVIDYIDSKFEDYLNAESRVNRRQMPDNRVQCCLYFIAPSGHGLKPLDIEFMKRLHEKVNIIPLIAKADTLTPEECQQFKKQIMKEIQEHKIKIYEFPETDDEEENKLVKKIKDRLPLAVVGSNTIIEVNGKRVRGRQYPWGVAEVENGEHCDFTILRNMLIRTHMQDLKDVTNNVHYENYRSRKLAAVTYNGVDNNKNKGQLTKSPLAQMEEERREHVAKMKKMEMEMEQVFEMKVKEKVQKLKDSEAELQRRHEQMKKNLEAQHKELEEKRRQFEDEKANWEAQQRILEQQNSSRTLEKNKKKGKIF | binds |
